Source: PubChem BioAssay AID2685 (National Center for Advancing Translational Sciences (NCATS), 2010)
The other results are listed elsewhere or left out. Shown are side measurements of this screen, not its main read-out; they come without a call. The list favours compounds with an active or inconclusive main result. Potencies come from curve fits of mixed quality, noted in brackets.

Test: qHTS Assay for Lipid Storage Modulators in Drosophila S3 Cells;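 on cell number change: cells counted by Cell Tracker Red CMTPX staining in the red channel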
Conditions: BODIPY lipid droplet fluorescence, 18-24 h; for cell number change: measured here: cell count max response, cells fed with added oleic acid
How it was run: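 Laser-scanning cytometry quantifies lipid droplet accumulation (500–530 nm total intensity; droplet/cell object ratio) in oleic acid-fed (400 uM added) Drosophila S3 cells treated with a concentration series. 20 uM Triacsin C defined 100% inhibition.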

[1] = measured here: cell number channel AC50, cells fed with added oleic acid
[2] = measured here: lipid fluorescence (Fed channel) AC50, cells fed with added oleic acid

Question: Which results are given for `COc1ccc(C(=O)n2cc(C(=O)c3cc(C)ccc3O)cn2)cc1OC`?
Answer: cell number change: 34.3%; AC50 [1]: 29.1 µM [rising, single point]

Question: For `COc1cccc(CN(CC(=O)NCc2ccco2)C(=O)CNS(=O)(=O)c2ccccc2)c1`, which cell number change is on record?
Answer: -0.435%

Question: With `CCCc1c(C(=O)N/N=C/c2cccnc2)nnn1-c1nonc1N` as the compound, how does the AC50 [1] read?
Answer: 0.00651 µM [rising, full curve, poor fit]

Question: And the AC50 [2]?
Answer: 4.11 µM [rising, single point]

Question: For `O=C1CC(c2ccc(Cl)cc2)n2nc(N3C(=O)c4ccccc4C3=O)nc2N1` (centres undefined), which cell number change is on record?
Answer: 73.4%

Question: What about the AC50 [1] of the same compound?
Answer: 4.61 µM [rising, full curve]

Question: What about the AC50 [2] of the same compound?
Answer: 6.51 µM [rising, single point]

Question: With `Fc1ccc(NC(=S)NN=C2CCCCCC2)cc1` as the compound, how does the cell number change read?
Answer: 14.4%

Question: And the AC50 [2]?
Answer: 23.1 µM [rising, single point]

Question: Which cell number change does the source give for `O=C(CCCn1c(=O)c2cccn2c2cccnc21)NCCc1ccc(Cl)cc1` here?
Answer: -13%

Question: And the AC50 [2]?
Answer: 0.82 µM [falling, single point]

Question: For `NC(=O)COC(=O)CCCSc1nc2ccccc2s1`, which cell number change is on record?
Answer: -29%

Question: With `O=C(N/N=C/c1cccc(NC(=O)c2ccc(Cl)cc2)c1)c1cccc(O)c1` as the compound, how does the cell number change read?
Answer: 16.9%

Question: What about the AC50 [2] of the same compound?
Answer: 9.2 µM [rising, partial curve]

Question: For `COc1ccc(NS(=O)(=O)c2ccc3oc(SCC(N)=O)nc3c2)cc1`, which cell number change is on record?
Answer: 9.24%

Question: With `CC(C)C(OC(=O)c1ccco1)C(=O)NC1CCCC1` (centres undefined) as the compound, how does the cell number change read?
Answer: 7.21%

Question: With `COC(=O)C1CCN(C(=O)CCC2CCCCC2)CC1` as the compound, how does the cell number change read?
Answer: 17.8%

Question: And the AC50 [2]?
Answer: 0.00651 µM [falling, full curve, poor fit]

Question: For `Cc1ccc(S(=O)(=O)N/N=C(\c2ccccc2)c2cccnc2)cc1`, which cell number change is on record?
Answer: 6.25%

Question: What about the AC50 [2] of the same compound?
Answer: 7.31 µM [falling, partial curve, poor fit]

Question: Which cell number change does the source give for `C/C=C/C(=O)OCC(=O)Nc1c(Cl)cccc1Cl` here?
Answer: -44.6%

Question: And the AC50 [1]?
Answer: 3.66 µM [falling, full curve]

Question: And the AC50 [2]?
Answer: 3.66 µM [falling, full curve]

Question: Which AC50 [2] does the source give for `O=C(c1ccccc1)c1ccc(OCC(=O)N2CCOCC2)cc1` here?
Answer: 20.6 µM [rising, single point]

Question: For `COc1ccc(NC(=S)N2CCN(C(=O)c3ccco3)CC2)cc1`, which cell number change is on record?
Answer: 14.5%

Question: Which cell number change does the source give for `Cc1ccc(N2C(=O)c3cccc4c([N+](=O)[O-])ccc(c34)C2=O)c2cccnc12` here?
Answer: -18.8%

Question: And the AC50 [2]?
Answer: 6.51 µM [falling, single point]

Question: Which cell number change does the source give for `c1ccc(-c2cc3c(N4CCN(c5ncccn5)CC4)ncnc3s2)cc1` here?
Answer: -17.1%

Question: What about the AC50 [1] of the same compound?
Answer: 4.11 µM [falling, single point]

Question: And the AC50 [2]?
Answer: 6.51 µM [falling, single point]

Question: For `CC(=O)Nc1ccc(C(=O)OCC(=O)NC(=O)NC(C)(C)C)cc1`, which cell number change is on record?
Answer: 21.9%

Question: With `Cc1c(N=Cc2ccc[nH]2)c(=O)n(-c2ccccc2)n1C` as the compound, how does the cell number change read?
Answer: -11.9%

Question: And the AC50 [2]?
Answer: 0.103 µM [falling, full curve, poor fit]

Question: Which cell number change does the source give for `O=C(c1ccc([N+](=O)[O-])cc1Cl)N1CCN(c2ccccn2)CC1` here?
Answer: 6.4%

Question: Which cell number change does the source give for `Cc1ccc(C(=O)Cn2c(C(=O)O)cc3ccccc32)cc1` here?
Answer: 8.2%

Question: What does the source list for `CC(C)(C)c1ccc(-c2nc(C=O)c3ccccn23)cc1`?
Answer: cell number change: -9.73%; AC50 [2]: 0.731 µM [falling, full curve]

Question: Which results are given for `CS(=O)(=O)N(CC(=O)NCc1ccccc1)Cc1ccc(Cl)cc1`?
Answer: cell number change: -15.1%; AC50 [1]: 0.0184 µM [falling, full curve, poor fit]; AC50 [2]: 0.411 µM [falling, full curve]

Question: Which cell number change does the source give for `COc1cc(C(=O)NCC(c2ccco2)N(C)C)cc(OC)c1OC` (centres undefined) here?
Answer: 20.3%

Question: What about the AC50 [2] of the same compound?
Answer: 8.2 µM [rising, partial curve, poor fit]

Question: For `CCOc1cc(S(=O)(=O)n2ccnc2)ccc1Cl`, which cell number change is on record?
Answer: 13.5%

Question: With `COc1ccc(C(=O)NCCc2ccc(Cl)cc2)cc1S(=O)(=O)N1CCCCC1C` (centres undefined) as the compound, how does the cell number change read?
Answer: -0.501%

Question: What about the AC50 [2] of the same compound?
Answer: 29.1 µM [rising, single point]

Question: Which results are given for `Cn1cc(CCC(=O)NC2CC(C)(C)Cc3c2cnn3-c2ccc(F)cc2)cn1` (centres undefined)?
Answer: cell number change: 1.66%; AC50 [2]: 0.58 µM [rising, single point]

Question: With `COc1cccc(NC(=O)COC(=O)C2CC3CCCC(C2)C3=O)c1` (centres undefined) as the compound, how does the cell number change read?
Answer: 18.2%

Question: And the AC50 [1]?
Answer: 4.11 µM [falling, single point]

Question: And the AC50 [2]?
Answer: 4.61 µM [falling, single point]

Question: For `Cn1cc(CN2CCC(n3nccc3NC(=O)C3CCCC3)CC2)cn1`, which cell number change is on record?
Answer: 15.9%

Question: Which cell number change does the source give for `O=C(CCc1ccc(S(=O)(=O)N2CCOCC2)cc1)Nc1nccs1` here?
Answer: 5.92%

Question: What about the AC50 [2] of the same compound?
Answer: 9.2 µM [rising, partial curve, poor fit]

Question: With `CCc1ccc(C(=O)N2CCN(c3ccc(NC(=O)c4cccnc4)cc3)CC2)cc1` as the compound, how does the cell number change read?
Answer: -22.3%

Question: What about the AC50 [2] of the same compound?
Answer: 2.31 µM [rising, partial curve, poor fit]

Question: Which cell number change does the source give for `CCOC(=O)COc1ccc(S(=O)(=O)N2CCc3ccccc3C2)cc1` here?
Answer: -58.8%

Question: What about the AC50 [1] of the same compound?
Answer: 32.6 µM [falling, single point]

Question: And the AC50 [2]?
Answer: 0.731 µM [falling, single point]

Question: For `C=CCNC(=O)C(C#N)c1nc2ccccc2nc1N1CCN(Cc2ccccc2)CC1` (centres undefined), which cell number change is on record?
Answer: -13%

Question: Which cell number change does the source give for `Cc1cccc(NC(=S)NC23CN4CN(CN(C4)C2)C3)c1` here?
Answer: 5.74%

Question: Which cell number change does the source give for `O=C(C1CCCO1)N(Cc1ccccc1)c1ccccc1` (centres undefined) here?
Answer: -69.1%

Question: What about the AC50 [1] of the same compound?
Answer: 16.4 µM [falling, partial curve]

Question: What about the AC50 [2] of the same compound?
Answer: 18.4 µM [falling, partial curve]

Question: For `COc1ccc(CCNC(=O)C2CCCN2S(=O)(=O)c2cccc3nsnc23)cc1OC` (centres undefined), which AC50 [2] is on record?
Answer: 4.11 µM [rising, partial curve, poor fit]

Question: Which results are given for `C/C(=N/NS(=O)(=O)c1ccc(Cl)cc1)c1ccncc1`?
Answer: cell number change: -9.41%; AC50 [1]: 2.06 µM [rising, partial curve, poor fit]; AC50 [2]: 0.58 µM [rising, single point]

Question: Which cell number change does the source give for `COc1ccc(C2CC(c3ccc(OC)cc3)n3nc(NC(=O)c4ccco4)nc3N2)cc1` (centres undefined) here?
Answer: 17.4%

Question: Which cell number change does the source give for `COc1ccc(N2C(=O)C(CC(=O)Nc3ccccc3)N(Cc3ccc4c(c3)OCO4)C2=O)cc1` (centres undefined) here?
Answer: -30.1%

Question: And the AC50 [1]?
Answer: 0.326 µM [falling, full curve, poor fit]

Question: And the AC50 [2]?
Answer: 6.51 µM [falling, single point]

Question: Which cell number change does the source give for `O=C1CC(N2CCC(c3nc4ccccc4o3)CC2)C(=O)N1` (centres undefined) here?
Answer: -26.4%

Question: What about the AC50 [2] of the same compound?
Answer: 29.1 µM [falling, partial curve, poor fit]
